# Measured values reported in PubChem BioAssay AID504467 (National Center for Advancing Translational Sciences (NCATS), 2011).
# Hit rate of the full screen: of about 330,000 compounds, about 7,700 (2.3%) were called active. The inconclusive results got no clear call from the source; some entries with a clear call stand among them for comparison. The call rests on the fitted dose curve; in most records, active means well fitted inhibition curve with a large enough effect; inconclusive means small, poorly fitted or top-dose-only effect, or effect the other way; inactive means flat fitted curve, though single readings scatter. Potencies of inconclusive entries are doubtful fits and often do not repeat.
# Experiment: qHTS screen for small molecules that inhibit ELG1-dependent DNA repair in human embryonic kidney (HEK293T) cells expressing luciferase-tagged ELG1; further: nearly all actives have a fitted effect of over 55% in size
# Conditions: HEK293T ELG1-luciferase reporter, luminescence, 16 h, DNA damage induced by 5-fluorouridine; activity change, negative = inhibition: at 46.1 µM (top of the series)
# How it was run: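 Cells (2,000 per well) received 5-fluorouridine plus test compound or DMSO and were incubated 16 hr at 37 °C, 5% CO2. Luciferase activity was read by luminescence 30 min after ONE-Glo addition; signal suppression marked inhibition of damage-induced ELG1 function.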
# On the % scale 0 is the no-effect control and ±100 the full control effect; potency means the concentration at half of the fitted maximal effect.
SMILES,"activity change, negative = inhibition",Potency
O=C(NCc1cnc2ccccn12)C1CCC(=O)N(Cc2ccccc2F)C1 (stereo unspecified),inactive: 6.53%,–
COc1ccccc1N=C1NC(=O)/C(=C/c2ccc(N(C)C)cc2)S1,–,"inconclusive: 29.1 µM [activator, single point]"
COC(=O)c1c(C)[nH]c(C(=O)C(C)OC(=O)C2=NNC(=O)CC2)c1C (stereo unspecified),inactive: -0.892%,–
CCc1cc(=O)n2[nH]c(C)c(-c3ccccc3OC)c2n1,inactive: -21.2%,–
Cc1nn(C)c(C)c1/C=C1/SC(=S)NC1=O,–,"inconclusive: 18.4 µM [activator, partial curve, poor fit]"
CC(=O)c1ccc(OCC(O)CN2CCN(S(=O)(=O)c3c(C)c(C)cc(C)c3C)CC2)cc1 (stereo unspecified),–,"inconclusive: 32.6 µM [inhibitor, single point]"
O=C(NNC(=O)c1cc(-c2ccncc2)nc2ccccc12)Nc1ccc(F)cc1,inactive: -12.2%,–
COc1ccc(-c2cc(C(=O)NC(Cc3cc4ccccc4[nH]3)C(=O)O)c(C)o2)cc1OC (stereo unspecified),–,"inconclusive: 29.1 µM [activator, single point]"
CCCn1c2ccccc2c2cnn(CC(=O)NCCOC)c(=O)c21,inactive: 14.6%,–
Cc1nc(/N=C(\N)NC(=O)c2ccccc2)nc2ccccc12,–,"inconclusive: 1.16 µM [activator, single point]"
O=C(NCc1cccs1)c1cc2ccccc2o1,–,"inconclusive: 16.4 µM [activator, partial curve]"
CCCCn1nc(C(=O)Nc2cccc(C(=O)NC3CC3)c2)c2ccccc2c1=O,–,active: 13 µM
O=C(NC1CC1)c1cc2cc(Br)ccc2s1,inactive: 21.4%,–
CN(C(=O)NC1CC(=O)N(c2ccc3c(c2)OCCO3)C1)c1ccccc1 (stereo unspecified),–,"inconclusive: 9.2 µM [activator, partial curve, poor fit]"
COc1ccccc1CNc1ccc(Br)cn1,–,"inconclusive: 14.6 µM [activator, partial curve]"
O=C(CCNC(=O)c1ccccc1Cl)Nc1ccccc1N1CCCC1,inactive: -0.904%,–
CCCCNC(=S)Nc1ccc(F)cc1,–,"inconclusive: 23.1 µM [inhibitor, partial curve, poor fit]"
Cc1cccc(NC(=O)/C(C#N)=C/c2cn(CC(=O)NCc3ccco3)c3ccccc23)c1,inactive: 23.8%,–
CCCCn1c(N)c(N(CC(C)C)C(=O)CSCC(=O)Nc2ccc(OC)cc2)c(=O)[nH]c1=O,inactive: 0%,–
COc1cc(C(=O)Nc2ccc(C(=O)c3cccs3)cc2)cc(OC)c1OC,–,"inconclusive: 14.6 µM [inhibitor, partial curve]"
CCOc1ccc(N=NC2C(=O)N(C(N)=S)N=C2C)cc1 (stereo unspecified),–,"inconclusive: 10 µM [activator, partial curve]"

# Rewritten as tab-separated lines: 4 of the compounds above.
SMILES	activity change, negative = inhibition	Potency
CC(=O)c1ccc(OCC(O)CN2CCN(S(=O)(=O)c3c(C)c(C)cc(C)c3C)CC2)cc1 (stereo unspecified)	–	inconclusive: 32.6 µM [inhibitor, single point]
O=C(NNC(=O)c1cc(-c2ccncc2)nc2ccccc12)Nc1ccc(F)cc1	inactive: -12.2%	–
COc1ccc(-c2cc(C(=O)NC(Cc3cc4ccccc4[nH]3)C(=O)O)c(C)o2)cc1OC (stereo unspecified)	–	inconclusive: 29.1 µM [activator, single point]
CCCn1c2ccccc2c2cnn(CC(=O)NCCOC)c(=O)c21	inactive: 14.6%	–
